Test results as given in PubChem BioAssay AID588590 (National Center for Advancing Translational Sciences (NCATS), 2011).
The whole screen tested about 390,000 compounds, of which about 4,000 (1%) were called active. Inconclusive results, whose numbers are uncertain, are shown with a selection of clear calls. The call rests on the fitted dose curve; in most records, active means well fitted inhibition curve with a large enough effect; inconclusive means small, poorly fitted or top-dose-only effect, or another doubt; inactive means no such curve, though single readings can be large or run the other way. Potencies of inconclusive entries are doubtful fits and often do not repeat.

Amino acid sequences for entries named in this document (tags omitted). A change or cut given only in a name is not applied to a line headed by its entry.
UniProt Q9UNA4: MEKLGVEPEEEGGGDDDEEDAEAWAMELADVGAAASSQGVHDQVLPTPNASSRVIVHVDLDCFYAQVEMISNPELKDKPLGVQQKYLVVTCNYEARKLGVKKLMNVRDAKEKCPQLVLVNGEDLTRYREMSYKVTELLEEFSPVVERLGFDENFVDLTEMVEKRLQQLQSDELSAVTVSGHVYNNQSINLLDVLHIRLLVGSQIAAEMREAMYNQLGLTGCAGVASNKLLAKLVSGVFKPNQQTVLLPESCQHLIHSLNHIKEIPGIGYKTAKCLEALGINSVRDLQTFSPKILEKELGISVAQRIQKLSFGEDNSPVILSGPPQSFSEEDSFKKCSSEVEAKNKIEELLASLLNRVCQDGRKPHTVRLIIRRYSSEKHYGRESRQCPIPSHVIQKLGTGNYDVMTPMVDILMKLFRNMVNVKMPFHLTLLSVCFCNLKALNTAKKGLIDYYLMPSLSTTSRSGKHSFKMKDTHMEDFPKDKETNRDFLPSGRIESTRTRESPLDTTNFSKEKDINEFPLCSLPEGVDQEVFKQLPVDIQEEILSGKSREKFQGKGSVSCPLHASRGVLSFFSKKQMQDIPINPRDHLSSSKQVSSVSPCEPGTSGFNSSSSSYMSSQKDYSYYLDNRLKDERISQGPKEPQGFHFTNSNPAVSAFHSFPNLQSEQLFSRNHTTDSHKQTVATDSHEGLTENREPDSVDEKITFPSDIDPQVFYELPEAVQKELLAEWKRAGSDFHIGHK

molecular target: DNA polymerase iota (Homo sapiens) (UniProt Q9UNA4); experiment: qHTS for Inhibitors of Polymerase Iota; settings: Pol iota fluorescent replication assay, 10 min; series mostly up to 115 µM
Method in brief: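 Pol iota at 10 nM preincubated 15 min with compounds at room temperature; reaction started with fluorescent substrate, 50 nM final. Fluorescence read kinetically at 0 and 10 min; buffer-only wells as negative control.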
Potency means the concentration at half of the fitted maximal effect.

Potency, active:
COc1ccccc1CNC(=O)c1cc(S(=O)(=O)N2CCN(c3ccccc3)CC2)ccc1Cl 89.1 µM
CCN(CC)C(=O)C1CCCN(C(=O)Nc2ccc3nsnc3c2)C1 (centres undefined) 0.891 µM
Cc1ccc(SCc2ccc(C(=O)NCc3ccncc3)cc2)cc1 28.2 µM
O=c1cc(-c2ccc(O)c(-c3c(O)cc(O)c4c(=O)cc(-c5ccc(O)cc5)oc34)c2)oc2cc(O)cc(O)c12 31.6 µM
CCN1CC2=C(OC(N)=C(C#N)C2c2cccs2)/C(=C\c2cccs2)C1 (centres undefined) 39.8 µM

Potency, inconclusive:
CCCc1nc2ccccc2c(=O)n1CC(=O)c1ccc(F)cc1 56.2 µM [inhibitor, partial curve, poor fit]
CC(CN(C)Cc1ccccc1)OC(=O)C1COc2ccccc2O1 (centres undefined) 35.5 µM [inhibitor, single point]
CC1C/C(=N/N2C(=O)CSC2=S)CC(C)(C)C1 (centres undefined) 14.1 µM [inhibitor, full curve, poor fit]
CCc1nc2oc3cc(OC)ccc3c(=O)c2c(=O)n1Cc1ccco1 28.2 µM [inhibitor, partial curve, poor fit]
O=C(CC12CC3CC(CC(C3)C1)C2)NC(=S)NCc1ccco1 89.1 µM [inhibitor, single point]
CC(C)(C)NC(=O)C[C@H]1C[C@H](C(=O)N2CCOCC2)[C@@]2(CCC3CCCC3)c3[nH]c4ccc(Cl)cc4c3CCN2C1=O 1.26 µM [inhibitor, partial curve, poor fit]
O=C(Nc1nnc(-c2ccccc2)o1)Nc1ccccc1Cl 39.8 µM [inhibitor, single point]
CCOC(=O)c1cc(CC)sc1NC(=O)c1ccc2c(c1)OCCO2 12.6 µM [inhibitor, single point]
COc1cc(OC)c(/C=C/c2ccncn2)c(OC)c1 79.4 µM [inhibitor, single point]
COC(=O)CSc1nc2c(c(-c3ccco3)c1C#N)CCCC2 14.1 µM [inhibitor, partial curve, poor fit]
O=C(Nc1sc2c(c1C(=O)NCc1ccco1)CCCC2)c1cc(=O)c2ccccc2o1 79.4 µM [inhibitor, partial curve, poor fit]
Cc1ccc(NC(=O)CCc2nnc3n(C)c(=O)c4sccc4n23)cc1C 79.4 µM [inhibitor, single point]
C[C@H]1CN=C(N(C)C)N1CC1CCCC1 20 µM [inhibitor, partial curve, poor fit]
O=C1C(=O)c2c(C(=O)c3ccccc3)coc2-c2ccccc21 39.8 µM [inhibitor, single point]
O=C(CSC1=NCCS1)NCc1ccco1 89.1 µM [inhibitor, single point]
O=C(c1ccc(N2CCN(C(=O)c3ccc(F)c(F)c3)CC2)cc1)c1cccc(F)c1 79.4 µM [inhibitor, single point]
CC(=O)N1CCOc2ccc(S(=O)(=O)N(C)c3cccc(C)c3)cc21 5.01 µM [inhibitor, full curve, poor fit]
COc1cc(C(=O)NCC(c2cccs2)S(=O)(=O)c2ccc(F)cc2)cc(OC)c1OC (centres undefined) 31.6 µM [inhibitor, partial curve, poor fit]
Cc1cc(C)cc(NCc2cc3c(cc2[N+](=O)[O-])OCO3)c1 39.8 µM [inhibitor, partial curve, poor fit]
Brc1ccccc1-c1nnc(COc2cccc3cccnc23)o1 39.8 µM [inhibitor, single point]
CC1CCCCC1NC(=O)Cn1c(=O)oc2cc(S(=O)(=O)N3CCCC3)ccc21 (centres undefined) 35.5 µM [inhibitor, partial curve]
COc1ccc(-c2cn3c(C)c(C(=O)Nc4cc(NC(C)=O)ccc4OC)sc3n2)cc1 89.1 µM [inhibitor, partial curve, poor fit]
CCOC(=O)C1=C(C)N=c2s/c(=C3/C(=O)Nc4ccccc43)c(=O)n2C1c1ccc(C)cc1 (centres undefined) 39.8 µM [inhibitor, partial curve, poor fit]

Potency, inactive:
CC(CC(=O)Nc1ncc([N+](=O)[O-])s1)c1ccccc1 (centres undefined)
Nc1ccc2nn(-c3cccc4ccccc34)nc2c1
COc1ccccc1C1CCN(Cc2ccc3ccccc3c2)CC1
CNC(=S)N/N=C/c1ccc(-c2ccc(Cl)c([N+](=O)[O-])c2)o1
CSC1=NC2(CCN(C(=O)NC3CCCCC3)CC2)N=C1c1ccc(C)c(C)c1
CCOCCCNC(=O)C(c1ccc(C)cc1)N(Cc1ccc2c(c1)OCO2)C(=O)c1ccc(NC(C)=O)cc1 (centres undefined)
O=C(COc1ccccc1)Nc1ccc(N2CCN(C(=O)c3cccs3)CC2)cc1
Nc1cc(=O)[nH]c(SCC(=O)Nc2cccc(Cl)c2)n1
CN(C)c1nc2c(cnn2C)c(=O)[nH]1
Cc1cccc(NC(=O)c2nnn(CC(=O)Nc3ccc(C(C)C)cc3)c2N)c1C
COc1cc2cc(CNc3ccc(C)cc3)c(=O)n(CC(=O)Nc3ccc(F)cc3F)c2cc1OC
O=C(NNS(=O)(=O)c1ccc(Br)cc1)c1csnn1
O=C(NCc1ccccc1Cl)c1ccc(CSCc2ccccc2Cl)o1
CC(=O)Nc1ccc2nc(NC(=O)COc3ccccc3C)sc2c1
CCc1ccc(NC(=O)CCn2nc(-c3ccccc3OC)c3c(C)cc(C)nc32)cc1
Cc1noc(C)c1COC(=O)[C@H](C)NS(=O)(=O)c1ccc(Cl)c(Cl)c1

Part of the list above in order of length of the SMILES, rising.
Potency, inactive:
Nc1ccc2nn(-c3cccc4ccccc34)nc2c1
CC(=O)Nc1ccc2nc(NC(=O)COc3ccccc3C)sc2c1
O=C(COc1ccccc1)Nc1ccc(N2CCN(C(=O)c3cccs3)CC2)cc1
CSC1=NC2(CCN(C(=O)NC3CCCCC3)CC2)N=C1c1ccc(C)c(C)c1
